Assay results published in doi:10.1101/2024.01.29.577837.
Substitutions are numbered along the chain they refer to. No constants are given. Whether binding was seen depends on the method and setting. Binding seen in cells or lysates may run through a third protein. Some binding calls cover weakened binding; strength is not graded here. Where a sequence is shown, tags or fusion partners need not be part of it.

Sequences of proteins named here, by UniProt entry; tags and fusion partners are left off. Residues count along the entry.
UniProt Q13705, residues 19-512: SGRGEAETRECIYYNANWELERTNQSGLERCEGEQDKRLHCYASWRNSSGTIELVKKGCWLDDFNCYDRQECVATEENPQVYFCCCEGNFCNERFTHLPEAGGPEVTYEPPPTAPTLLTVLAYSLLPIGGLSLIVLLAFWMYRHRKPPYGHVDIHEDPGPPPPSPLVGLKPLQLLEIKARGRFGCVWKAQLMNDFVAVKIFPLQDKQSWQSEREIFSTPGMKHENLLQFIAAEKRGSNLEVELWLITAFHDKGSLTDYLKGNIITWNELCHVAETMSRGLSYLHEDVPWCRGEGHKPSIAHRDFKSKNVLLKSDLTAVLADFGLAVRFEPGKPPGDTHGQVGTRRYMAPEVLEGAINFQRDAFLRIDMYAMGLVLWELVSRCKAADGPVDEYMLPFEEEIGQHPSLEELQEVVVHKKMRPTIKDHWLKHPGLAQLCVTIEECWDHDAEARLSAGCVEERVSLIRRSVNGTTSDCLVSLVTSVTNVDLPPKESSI

What was measured:
[1] = target: T1, myc-human ACVR1 (human) (UniProt Q04771); test: co-IP
T1 sequence: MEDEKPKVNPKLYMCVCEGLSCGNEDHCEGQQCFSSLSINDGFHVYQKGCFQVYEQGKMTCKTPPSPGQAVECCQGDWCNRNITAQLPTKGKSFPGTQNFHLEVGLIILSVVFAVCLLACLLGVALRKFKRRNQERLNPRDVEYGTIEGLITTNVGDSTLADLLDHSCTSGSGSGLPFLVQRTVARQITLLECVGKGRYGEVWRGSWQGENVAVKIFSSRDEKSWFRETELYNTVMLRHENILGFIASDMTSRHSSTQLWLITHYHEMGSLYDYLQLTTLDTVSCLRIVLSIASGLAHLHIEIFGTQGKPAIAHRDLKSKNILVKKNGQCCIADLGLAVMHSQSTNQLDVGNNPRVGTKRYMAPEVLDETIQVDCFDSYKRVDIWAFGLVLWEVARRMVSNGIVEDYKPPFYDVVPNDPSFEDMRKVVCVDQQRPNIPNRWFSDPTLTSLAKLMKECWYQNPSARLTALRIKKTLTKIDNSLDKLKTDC

[2] = target: T2, myc-human ACVR1.R206H (human) (UniProt Q04771); test: co-IP
T2 sequence: T1 sequence with R186H

binding [1]: binds
binding [2]: binds
Substance: HA-human ACVR2B (from UniProt Q13705 19-512) (receptor)
